From US10525115B2 (Immatics Biotechnologies GmbH, priority 2014, dated 2020)

B1: CREG1 cellular repressor of E1A-stimulated genes 1: HLA class II ligandome-derived tumor-associated antigen (LiTAA), source protein of the peptides listed under it (protein, UniProt O75629 32-220, looked up)
Protein CREG1: RGGRDHGDWDEASRLPPLPPREDAARVARFVTHVSDWGALATISTLEAVRGRPFADVLSLSDGPPGAGSGVPYFYLSPLQLSVSNLQENPYATLTMTLAQTNFCKKHGFDPQSPLCVHIMLSGTVTKVNETEMDIAKHSLFIRHPEMKTWPSSHNWFFAKLNITNIWVLDYFGGPKIVTPEEYYNVTVQ
B2: IKZE4 (protein, UniProt Q9H2S9 1-585, looked up)
Zinc finger protein Eos: MHTPPALPRRFQGGGRVRTPGSHRQGKDNLERDPSGGCVPDFLPQAQDSNHFIMESLFCESSGDSSLEKEFLGAPVGPSVSTPNSQHSSPSRSLSANSIKVEMYSDEESSRLLGPDERLLEKDDSVIVEDSLSEPLGYCDGSGPEPHSPGGIRLPNGKLKCDVCGMVCIGPNVLMVHKRSHTGERPFHCNQCGASFTQKGNLLRHIKLHSGEKPFKCPFCNYACRRRDALTGHLRTHSVSSPTVGKPYKCNYCGRSYKQQSTLEEHKERCHNYLQSLSTEAQALAGQPGDEIRDLEMVPDSMLHSSSERPTFIDRLANSLTKRKRSTPQKFVGEKQMRFSLSDLPYDVNSGGYEKDVELVAHHSLEPGFGSSLAFVGAEHLRPLRLPPTNCISELTPVISSVYTQMQPLPGRLELPGSREAGEGPEDLADGGPLLYRPRGPLTDPGASPSNGCQDSTDTESNHEDRVAGVVSLPQGPPPQPPPTIVVGRHSPAYAKEDPKPQEGLLRGTPGPSKEVLRVVGESGEPVKAFKCEHCRILFLDHVMFTIHMGCHGFRDPFECNICGYHSQDRYEFSSHIVRGEHKVG
B3: APRT adenine phosphoribosyltransferase: HLA class II ligandome-derived tumor-associated antigen (LiTAA), source protein of the peptides listed under it (protein, UniProt P07741 2-180, looked up)
Adenine …: ADSELQLVEQRIRSFPDFPTPGVVFRDISPVLKDPASFRAAIGLLARHLKATHGGRIDYIAGLDSRGFLFGPSLAQELGLGCVLIRKRGKLPGPTLWASYSLEYGKAELEIQKDALEPGQRVVVVDDLLATGGTMNAACELLGRLQAEVLECVSLVELTSLKGREKLAPVPFFSLLQYE
B4: RAB5A RAB5A, member RAS oncogene family: HLA class II ligandome-derived tumor-associated antigen (LiTAA), source protein of the peptides listed under it (protein, UniProt P20339 1-215, looked up)
Ras-related protein Rab-5A: MASRGATRPNGPNTGNKICQFKLVLLGESAVGKSSLVLRFVKGQFHEFQESTIGAAFLTQTVCLDDTTVKFEIWDTAGQERYHSLAPMYYRGAQAAIVVYDITNEESFARAKNWVKELQRQASPNIVIALSGNKADLANKRAVDFQEAQSYADDNSLLFMETSAKTSMNVNEIFMAIAKKLPKNEPQNPGANSARGRGVDLTEPTQPTRNQCCSN
B5: MAN1A1 mannosidase, alpha, class 1A, member 1: HLA class II ligandome-derived tumor-associated antigen (LiTAA), source protein of the peptides listed under it (protein, UniProt P33908 1-653, looked up)
Mannosyl-oligosaccharide …: MPVGGLLPLFSSPAGGVLGGGLGGGGGRKGSGPAALRLTEKFVLLLVFSAFITLCFGAIFFLPDSSKLLSGVLFHSSPALQPAADHKPGPGARAEDAAEGRARRREEGAPGDPEAALEDNLARIRENHERALREAKETLQKLPEEIQRDILLEKKKVAQDQLRDKAPFRGLPPVDFVPPIGVESREPADAAIREKRAKIKEMMKHAWNNYKGYAWGLNELKPISKGGHSSSLFGNIKGATIVDALDTLFIMEMKHEFEEAKSWVEENLDFNVNAEISVFEVNIRFVGGLLSAYYLSGEEIFRKKAVELGVKLLPAFHTPSGIPWALLNMKSGIGRNWPWASGGSSILAEFGTLHLEFMHLSHLSGNPIFAEKVMNIRTVLNKLEKPQGLYPNYLNPSSGQWGQHHVSVGGLGDSFYEYLLKAWLMSDKTDLEAKKMYFDAVQAIETHLIRKSSSGLTYIAEWKGGLLEHKMGHLTCFAGGMFALGADAAPEGMAQHYLELGAEIARTCHESYNRTFMKLGPEAFRFDGGVEAIATRQNEKYYILRPEVMETYMYMWRLTHDPKYRKWAWEAVEALENHCRVNGGYSGLRDVYLLHESYDDVQQSFFLAETLKYLYLIFSDDDLLPLEHWIFNSEAHLLPILPKDKKEVEIREE
B6: CORO1A coronin, actin binding protein, 1A: HLA class II ligandome-derived tumor-associated antigen (LiTAA), source protein of the peptides listed under it (protein, UniProt P31146 2-461, looked up)
Coronin-1A: SRQVVRSSKFRHVFGQPAKADQCYEDVRVSQTTWDSGFCAVNPKFVALICEASGGGAFLVLPLGKTGRVDKNAPTVCGHTAPVLDIAWCPHNDNVIASGSEDCTVMVWEIPDGGLMLPLREPVVTLEGHTKRVGIVAWHTTAQNVLLSAGCDNVIMVWDVGTGAAMLTLGPEVHPDTIYSVDWSRDGGLICTSCRDKRVRIIEPRKGTVVAEKDRPHEGTRPVRAVFVSEGKILTTGFSRMSERQVALWDTKHLEEPLSLQELDTSSGVLLPFFDPDTNIVYLCGKGDSSIRYFEITSEAPFLHYLSMFSSKESQRGMGYMPKRGLEVNKCEIARFYKLHERRCEPIAMTVPRKSDLFQEDLYPPTAGPDPALTAEEWLGGRDAGPLLISLKDGYVPPKSRELRVNRGLDTGRRRAAPEASGTPSSDAVSRLEEEMRKLQATVQELQKRLDRLEETVQAK
B7: LBP lipopolysaccharide binding protein: HLA class II ligandome-derived tumor-associated antigen (LiTAA), source protein of the peptides listed under it (protein, UniProt P18428 26-481, looked up)
Lipopolysaccharide-binding …: ANPGLVARITDKGLQYAAQEGLLALQSELLRITLPDFTGDLRIPHVGRGRYEFHSLNIHSCELLHSALRPVPGQGLSLSISDSSIRVQGRWKVRKSFFKLQGSFDVSVKGISISVNLLLGSESSGRPTVTASSCSSDIADVEVDMSGDLGWLLNLFHNQIESKFQKVLESRICEMIQKSVSSDLQPYLQTLPVTTEIDSFADIDYSLVEAPRATAQMLEVMFKGEIFHRNHRSPVTLLAAVMSLPEEHNKMVYFAISDYVFNTASLVYHEEGYLNFSITDDMIPPDSNIRLTTKSFRPFVPRLARLYPNMNLELQGSVPSAPLLNFSPGNLSVDPYMEIDAFVLLPSSSKEPVFRLSVATNVSATLTFNTSKITGFLKPGKVKVELKESKVGLFNAELLEALLNYYILNTFYPKFNDKLAEGFPLPLLKRVQLYDLGLQIHKDFLFLGANVQYMRV
B8: ICAM3 intercellular adhesion molecule 3: HLA class II ligandome-derived tumor-associated antigen (LiTAA), source protein of the peptides listed under it (protein, UniProt P32942 30-547, looked up)
Intercellular adhesion …: QEFLLRVEPQNPVLSAGGSLFVNCSTDCPSSEKIALETSLSKELVASGMGWAAFNLSNVTGNSRILCSVYCNGSQITGSSNITVYRLPERVELAPLPPWQPVGQNFTLRCQVEDGSPRTSLTVVLLRWEEELSRQPAVEEPAEVTATVLASRDDHGAPFSCRTELDMQPQGLGLFVNTSAPRQLRTFVLPVTPPRLVAPRFLEVETSWPVDCTLDGLFPASEAQVYLALGDQMLNATVMNHGDTLTATATATARADQEGAREIVCNVTLGGERREARENLTVFSFLGPIVNLSEPTAHEGSTVTVSCMAGARVQVTLDGVPAAAPGQPAQLQLNATESDDGRSFFCSATLEVDGEFLHRNSSVQLRVLYGPKIDRATCPQHLKWKDKTRHVLQCQARGNPYPELRCLKEGSSREVPVGIPFFVNVTHNGTYQCQASSSRGKYTLVVVMDIEAGSSHFVPVFVAVLLTLGVVTIVLALMYVFREHQRSGSYHVREESTYLPLTSMQPTEAMGEEPSRAE
B9: CP ceruloplasmin (ferroxidase): HLA class II ligandome-derived tumor-associated antigen (LiTAA), source protein of the peptides listed under it (protein, UniProt P00450 20-1065, looked up)
Ceruloplasmin: KEKHYYIGIIETTWDYASDHGEKKLISVDTEHSNIYLQNGPDRIGRLYKKALYLQYTDETFRTTIEKPVWLGFLGPIIKAETGDKVYVHLKNLASRPYTFHSHGITYYKEHEGAIYPDNTTDFQRADDKVYPGEQYTYMLLATEEQSPGEGDGNCVTRIYHSHIDAPKDIASGLIGPLIICKKDSLDKEKEKHIDREFVVMFSVVDENFSWYLEDNIKTYCSEPEKVDKDNEDFQESNRMYSVNGYTFGSLPGLSMCAEDRVKWYLFGMGNEVDVHAAFFHGQALTNKNYRIDTINLFPATLFDAYMVAQNPGEWMLSCQNLNHLKAGLQAFFQVQECNKSSSKDNIRGKHVRHYYIAAEEIIWNYAPSGIDIFTKENLTAPGSDSAVFFEQGTTRIGGSYKKLVYREYTDASFTNRKERGPEEEHLGILGPVIWAEVGDTIRVTFHNKGAYPLSIEPIGVRFNKNNEGTYYSPNYNPQSRSVPPSASHVAPTETFTYEWTVPKEVGPTNADPVCLAKMYYSAVEPTKDIFTGLIGPMKICKKGSLHANGRQKDVDKEFYLFPTVFDENESLLLEDNIRMFTTAPDQVDKEDEDFQESNKMHSMNGFMYGNQPGLTMCKGDSVVWYLFSAGNEADVHGIYFSGNTYLWRGERRDTANLFPQTSLTLHMWPDTEGTFNVECLTTDHYTGGMKQKYTVNQCRRQSEDSTFYLGERTYYIAAVEVEWDYSPQREWEKELHHLQEQNVSNAFLDKGEFYIGSKYKKVVYRQYTDSTFRVPVERKAEEEHLGILGPQLHADVGDKVKIIFKNMATRPYSIHAHGVQTESSTVTPTLPGETLTYVWKIPERSGAGTEDSACIPWAYYSTVDQVKDLYSGLIGPLIVCRRPYLKVFNPRRKLEFALLFLVFDENESWYLDDNIKTYSDHPEKVNKDDEEFIESNKMHAINGRMFGNLQGLTMHVGDEVNWYLMGMGNEIDLHTVHFHGHSFQYKHRGVYSSDVFDIFPGTYQTLEMFPRTPGIWLLHCHVTDHIHAGMETTYTVLQNEDTKSG

Columns and labels:
primary AML samples [1] = experiment: HLA class II ligandome analysis (LC-MS/MS) of primary AML samples; parameters: species or system human; settings: AML patients n=12; for Number of positive AMLs: HLA class II ligandome; for rep. frequency in AMLs: source protein level, HLA class II
primary AML samples [2] = experiment: HLA class I ligandome analysis (W6/32 immunoaffinity purification, LC-MS/MS) of primary AML samples; parameters: species or system human; settings: source protein (LiTAA)

Row | Molecule | Number of positive AMLs (primary AML samples [1]) | rep. frequency in AMLs (primary AML samples [1]) [%] | Number of positive AMLs (primary AML samples [2]; AML patients (n=15)) | rep. frequency (primary AML samples [2]; representation frequency in AML patients (n=15))
1 | B1 | 3 | 25.0 | – | –
2 | B2 | – | – | 3 | [20.0%]
3 | B3 | 3 | 25.0 | – | –
4 | B4 | 3 | 25.0 | – | –
5 | B5 | 3 | 25.0 | – | –
6 | B6 | 5 | 41.7 | – | –
7 | B7 | 3 | 25.0 | – | –
8 | B8 | 3 | 25.0 | – | –
9 | B9 | 3 | 25.0 | – | –
